Results are given in words; binding and its absence hold for the method and conditions named. A result given as binding can be weak or reduced; the word gives no strength.
Target: TMEM55B_(80-166)2CysMUT (UniProt Q86T03)
Test: crystal structure; TMEM55B_(80-166)2CysMUT with RILPL1 391-403 peptide; 0.05M KSCN, 0.1M Tris pH 8.5, 18% PEG5000/MME; 1.55 Å; both purified

Chains of the proteins cited; added tags and fusions are not shown. Lines headed by an entry give the natural chain unless they say otherwise; changes in a name come on top.
UniProt Q86T03: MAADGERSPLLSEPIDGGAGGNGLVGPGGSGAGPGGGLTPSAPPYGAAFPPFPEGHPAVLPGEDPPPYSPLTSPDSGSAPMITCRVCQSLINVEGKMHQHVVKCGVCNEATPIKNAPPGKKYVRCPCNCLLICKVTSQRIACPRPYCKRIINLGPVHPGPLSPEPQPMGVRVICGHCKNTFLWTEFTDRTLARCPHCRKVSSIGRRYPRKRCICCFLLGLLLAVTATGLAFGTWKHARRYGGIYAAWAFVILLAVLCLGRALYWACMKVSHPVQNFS

binding: binds
Binder: GYTEQGQEALQHL [RILPL1 391-403 peptide]
